# Measured data: PubChem BioAssay AID1508597 (Cure First, 2020)
# Screen: 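Genes whose silencing sensitises or protects ovarian cancer cells against rucaparib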 (primary screen)
# Cell system: human ovarian carcinoma lines grown from tumours: OCI-P5x (papillary serous) and OCI-C5x (clear cell)
# Reagent: siRNA pool against human genes, 1.25 pmol siRNA per well
# Timing: 72 h or 96 h, depending on the cell culture
# Conditions: rucaparib 20 µM (about IC30) or vehicle, present until read-out
# Rucaparib or vehicle: Vehicle
# Cell line: OCI-P5x (serous)
# Read-out: 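ATP luminescence measured at 72 or 96 h according to the culture, then normalised and expressed as percent viability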
# Scale: viability, normalised: higher = more viable cells remaining
# Active means: 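a well counts as a hit if its normalised viability is under 80 percent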
# Meaning of the calls: active = viability under 80%; inactive = viability 80% or more
# Shown is an unselected part of the about 2,100 reagents, under one of the conditions tested. 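Calls flag viability under 80% in either arm, not effects specific to rucaparib; the reference for percent is not stated.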 A number with no mark means an inactive call. Some reagents were tested in more than one well and are listed for each. Reagent sequences are not shown. The record does not give: the 100% reference.
Gene,technical replicate,"viability, normalised (%)"
HMGA2,1,48.5 (active)
HMGA2,2,68.2 (active)
HMGA2,3,86.5
ABCC1,1,96.1
ABCC1,2,78.6 (active)
ABCC1,3,91.6
SMARCC2,1,62.1 (active)
SMARCC2,2,61.2 (active)
SMARCC2,3,46.2 (active)
MAP2K2,1,79.7 (active)
MAP2K2,2,68.2 (active)
MAP2K2,3,55.6 (active)
IP6K2,1,71.2 (active)
IP6K2,2,80.1
IP6K2,3,72.3 (active)
HDGFL3,1,55.1 (active)
HDGFL3,2,61.9 (active)
HDGFL3,3,85.8
RCOR3,1,77.8 (active)
RCOR3,2,80.7
RCOR3,3,125
CDC42BPB,1,87.6
CDC42BPB,2,72.7 (active)
CDC42BPB,3,58.3 (active)
UBE2N,1,47.4 (active)
UBE2N,1,102
UBE2N,2,45.6 (active)
UBE2N,2,103
UBE2N,3,99.4
UBE2N,3,42.8 (active)
ARX,1,46.9 (active)
ARX,2,77.3 (active)
ARX,3,71.2 (active)
DDR1,1,81.5
DDR1,2,80.7
DDR1,3,76.2 (active)
TAOK1,1,83.9
TAOK1,2,96.6
TAOK1,3,91.8
WNK2,1,59.5 (active)
WNK2,2,54.4 (active)
WNK2,3,67 (active)
GDPD2,1,91.4
GDPD2,2,84.2
GDPD2,3,104
UBR2,1,58 (active)
UBR2,2,68.7 (active)
UBR2,3,69.2 (active)
MAU2,1,60.1 (active)
MAU2,2,76 (active)
MAU2,3,88.8
LMTK3,1,88.6
LMTK3,2,65.7 (active)
LMTK3,3,79.3 (active)
ELOA3P,1,70.6 (active)
ELOA3P,2,71.6 (active)
ELOA3P,3,76 (active)
